According to paper PMC8195427:
No constants are given. Whether binding was seen depends on the method and setting. For some assays here: Binding seen in cells or lysates may run through a third protein. Some entries that bind do so weakly or less than the wild type. For some assays here: Tags and fused reporters may be left off the sequences shown.

T1: PHYTOCHROME … FACTOR 4 (PIF4), two-hybrid bait in pGBT9 (Arabidopsis thaliana) (UniProt Q8W2F3)
T1 sequence: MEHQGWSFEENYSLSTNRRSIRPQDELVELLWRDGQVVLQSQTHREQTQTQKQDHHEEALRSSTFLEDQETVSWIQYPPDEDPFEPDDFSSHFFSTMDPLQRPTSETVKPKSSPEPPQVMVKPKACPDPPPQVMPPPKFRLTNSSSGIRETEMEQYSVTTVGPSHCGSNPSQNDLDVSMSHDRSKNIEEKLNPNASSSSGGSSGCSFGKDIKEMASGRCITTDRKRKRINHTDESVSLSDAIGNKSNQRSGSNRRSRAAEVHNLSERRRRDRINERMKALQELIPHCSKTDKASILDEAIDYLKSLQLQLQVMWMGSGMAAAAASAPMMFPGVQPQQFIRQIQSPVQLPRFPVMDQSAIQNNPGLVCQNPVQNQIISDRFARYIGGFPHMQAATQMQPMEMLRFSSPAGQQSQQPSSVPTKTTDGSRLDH

T2: PIF4-myc (35S:PIF4-myc transgenic Arabidopsis) (Arabidopsis thaliana) (UniProt Q8W2F3)
T2 sequence: T1 sequence

B1: HECATE 2 (HEC2), wild type, two-hybrid prey in pGADT7 (protein, UniProt Q9SND4 1-231)
chain: MDNSDILMNMMMQQMEKLPEHFSNSNPNPNPHNIMMLSESNTHPFFFNPTHSHLPFDQTMPHHQPGLNFRYAPSPSSSLPEKRGGCSDNANMAAMREMIFRIAVMQPIHIDPESVKPPKRKNVRISKDPQSVAARHRRERISERIRILQRLVPGGTKMDTASMLDEAIHYVKFLKKQVQSLEEHAVVNGGGMTAVAGGALAGTVGGGYGGKGCGIMRSDHHQMLGNAQILR
B2: HEC2-GFP (35S:HEC2-GFP transgenic Arabidopsis) (protein, UniProt Q9SND4 1-231)
chain: B1 chain

Tests used:
[1] = target: T1, PHYTOCHROME … FACTOR 4 (PIF4), two-hybrid bait in pGBT9 (Arabidopsis thaliana); assay: two-hybrid; PIF4 as bait in pGBT9, HEC2 or mHEC2 as preys in pGADT7; yeast strain Y187, selected on -Leu, -Trp medium; beta-galactosidase assay
[2] = target: T2, PIF4-myc (35S:PIF4-myc transgenic Arabidopsis) (Arabidopsis thaliana); assay: co-IP; double transgenic Arabidopsis seedlings (35S:PIF4-myc crossed with 35S:HEC2-GFP or 35S:mHEC2-GFP), 50 seedlings a sample; precipitated with anti-myc and Dynabeads protein A; blots with anti-myc or anti-GFP

Binder	binding [1]	binding [2]
B1	binds	–
B2	–	binds
